PubChem BioAssay AID686938, Drosophila RNAi Screening Center – 2013
Test: 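Knock-downs reducing store-operated calcium influx in Drosophila cells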 (primary screen). Cell system: Drosophila S2R+ cells. Reagents: long dsRNA against Drosophila genes, about 0.25 µg dsRNA per well, roughly 10,000 cells. Timing: 5 days of knock-down before the calcium assay. Treatment: thapsigargin (SERCA pump blocker) to empty calcium stores; entry signal taken 4 min after adding it. Measured: 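Duplicate raw fluo-4 intensities per well from a plate reader, at rest and four minutes after thapsigargin emptied calcium stores; entry-to-rest ratio filled for only some wells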. Direction: calcium entry signal: higher = stronger calcium signal after store depletion; entry to resting ratio: higher = more calcium entry relative to resting level; resting calcium signal: higher = higher resting calcium signal. Call rule: 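Hit if the duplicate-averaged plate z-score for entry over resting signal is under −3; wells with weak total dye signal (Fmax z < −2) or more than 5 off-targets removed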. Calls: active = strongly reduced calcium entry; inactive = no strong reduction.
The screen tested about 23,000 reagents; shown is an unselected part of those with a known target gene and a result. In the full data, 75 (0.33%) are marked active. 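Raw plate signals without normalisation; calls rest on plate z-scores that were not deposited; ratio present for only 364 wells.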 A plus sign joins genes that one reagent is predicted to hit. Not given: the dose of the treatment.

gene knocked down | amplicon | calcium entry signal, replicate 1 (fluorescence units) | calcium entry signal, replicate 2 (fluorescence units) | entry to resting ratio | resting calcium signal, replicate 1 (fluorescence units) | resting calcium signal, replicate 2 (fluorescence units) | outcome
CG42245 + MEP-1 | DRSC07993 | 5.30e7 | 4.51e7 | – | 2.84e7 | 1.97e7 | inactive
CG42245 + MEP-1 | DRSC08274 | 3.79e7 | 3.95e7 | – | 1.85e7 | 1.88e7 | inactive
CG42245 + MEP-1 | DRSC21460 | 1.98e7 | 2.10e7 | – | 1.13e7 | 1.05e7 | inactive
CG13258 | DRSC02244 | 4.78e7 | 4.14e7 | – | 2.25e7 | 1.97e7 | inactive
CG42538 | DRSC09412 | 3.80e7 | 3.91e7 | – | 1.76e7 | 1.87e7 | inactive
PPO1 | DRSC05929 | 3.50e7 | 2.95e7 | – | 1.59e7 | 1.53e7 | inactive
CG33725 | DRSC09183 | 3.61e7 | 4.78e7 | – | 1.93e7 | 2.08e7 | inactive
Lst | DRSC07146 | 5.31e7 | 6.28e7 | – | 2.19e7 | 2.99e7 | inactive
tHMG1 | DRSC16181 | 3.34e7 | 3.80e7 | – | 5.69e7 | 1.75e7 | inactive
Obp19b | DRSC20536 | 4.67e7 | 5.04e7 | – | 2.27e7 | 1.87e7 | inactive

Quoted from the listing for reference:
gene knocked down | amplicon | calcium entry signal, replicate 1 (fluorescence units) | calcium entry signal, replicate 2 (fluorescence units) | entry to resting ratio | resting calcium signal, replicate 1 (fluorescence units) | resting calcium signal, replicate 2 (fluorescence units) | outcome
CG42538 | DRSC09412 | 3.80e7 | 3.91e7 | – | 1.76e7 | 1.87e7 | inactive
PPO1 | DRSC05929 | 3.50e7 | 2.95e7 | – | 1.59e7 | 1.53e7 | inactive

The listing continues:
gene knocked down | amplicon | calcium entry signal, replicate 1 (fluorescence units) | calcium entry signal, replicate 2 (fluorescence units) | entry to resting ratio | resting calcium signal, replicate 1 (fluorescence units) | resting calcium signal, replicate 2 (fluorescence units) | outcome
CROT | DRSC14518 | 3.47e7 | 4.63e7 | – | 1.67e7 | 2.05e7 | inactive
CROT | DRSC14519 | 2.61e7 | 4.21e7 | – | 1.40e7 | 1.59e7 | inactive
CG14937 | DRSC02419 | 3.18e7 | 3.83e7 | – | 1.66e7 | 1.80e7 | inactive
su(w[a]) | DRSC18840 | 3.81e7 | 4.01e7 | – | 1.88e7 | 1.94e7 | inactive
Pak3 | DRSC15017 | 3.37e7 | 3.31e7 | – | 1.68e7 | 1.59e7 | inactive
Not11 | DRSC04204 | 2.92e7 | 3.74e7 | – | 1.58e7 | 1.80e7 | inactive
CG32523 | DRSC20510 | 3.02e7 | 3.72e7 | – | 1.74e7 | 1.62e7 | inactive
Ravus | DRSC15126 | 2.47e7 | 4.15e7 | – | 1.25e7 | 5.95e7 | inactive
su(sable) | DRSC18839 | 2.68e7 | 4.30e7 | 2 | 1.36e7 | 1.77e7 | inactive
Rh2 | DRSC16821 | 2.21e7 | 3.23e7 | – | 3.21e7 | 1.32e7 | inactive
CG34221 | DRSC06150 | 4.30e7 | 4.27e7 | – | 1.83e7 | 1.93e7 | inactive
CG33342 | DRSC13662 | 3.63e7 | 3.80e7 | – | 1.75e7 | 1.96e7 | inactive
Wdr82 | DRSC02595 | 4.90e7 | 5.88e7 | – | 2.26e7 | 2.41e7 | inactive
Wdr82 | DRSC21723 | 3.00e7 | 3.48e7 | – | 1.71e7 | 1.86e7 | inactive
